# Measurements: PubChem BioAssay AID2685 (National Center for Advancing Translational Sciences (NCATS), 2010)
# The other results are listed elsewhere or left out. Shown are side measurements of this screen, not its main read-out; they come without a call. Most of these compounds were active or inconclusive in the main read-out, so they are no random draw. Words in brackets tell the shape of the fitted curve; partial curves, single points and poor fits give uncertain potencies.
# Experiment: qHTS Assay for Lipid Storage Modulators in Drosophila S3 Cells;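 on cell number change: cells counted by Cell Tracker Red CMTPX staining in the red channel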
# Conditions: BODIPY lipid droplet fluorescence, 18-24 h; for cell number change: measured here: cell count max response, cells fed with added oleic acid
# Procedure, shortened: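 Drosophila S3 cells got compounds at several concentrations plus oleic acid (400 uM solution). Laser-scanning cytometry with 488 nm excitation read lipid droplets at 500-530 nm and cells at 575-640 nm. Percent activity was relative to 20 uM Triacsin C.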
# [1] = measured here: cell number channel AC50, cells fed with added oleic acid
# [2] = measured here: lipid fluorescence (Fed channel) AC50, cells fed with added oleic acid
SMILES,cell number change,AC50 [1],AC50 [2]
COc1ccccc1CCC(=O)OCC(=O)NC1CCCC1,-23.2%,"0.651 µM [falling, full curve, poor fit]","0.92 µM [falling, full curve, poor fit]"
Cc1ccccc1OCCN1C(=O)C(=O)c2cccc(C)c21,7.46%,–,"1.84 µM [rising, partial curve, poor fit]"
Cc1ccccc1-c1nc(CS(=O)(=O)CC(=O)Nc2cc(F)ccc2F)c(C)o1,–,–,"6.51 µM [rising, single point]"
CS(=O)(=O)N(CC(=O)NC1CC2CCC1C2)c1cccc(C(F)(F)F)c1 (stereo not drawn),–,–,"6.51 µM [falling, single point]"
O=C(/C=C/c1ccc2c(c1)OCO2)NCCSCc1c(Cl)cccc1Cl,-40.2%,"29.1 µM [falling, single point]",–
CCOC(=O)CC1C(=O)NCCN1S(=O)(=O)c1ccc(OC)cc1 (stereo not drawn),-6.69%,–,–
O=C1CNC(=S)N1CCCn1ccnc1,20.7%,–,–
Cc1cc(Cl)ccc1OC(C)C(=O)NCCc1ccc2c(c1)OCCO2 (stereo not drawn),–,–,"0.184 µM [rising, full curve]"
COc1ccc(NC(=O)Nc2ccc3oc(C)nc3c2)cc1,21.1%,–,"0.731 µM [rising, full curve, poor fit]"
CN1CCN(CCC(=O)Nc2cccc(F)c2)CC1,-18%,"0.00461 µM [falling, full curve, poor fit]",–
CN(C)C(=S)SCC(=O)NC(=O)NC(C)(C)C,-78.6%,–,"2.06 µM [falling, partial curve]"
O=S(=O)(Nc1ccc(F)cc1)c1ccc(NS(=O)(=O)c2cccs2)cc1,–,–,"6.51 µM [falling, single point]"
COc1cc(CN2CCN(c3ccc(C)cc3)CC2)cc([N+](=O)[O-])c1O,3.1%,–,–
CCCCCC1=CCC/C1=N\NC(=O)c1ccc2c(c1)OCO2,39.9%,"0.206 µM [rising, full curve]","29.1 µM [rising, partial curve, poor fit]"
COc1cc(OC)c(OC)cc1/C=N/NC(=O)CSc1ccccc1F,4.26%,–,"7.31 µM [rising, partial curve]"
COc1ccccc1Cn1nnc2c(=O)[nH]c(C3CCN(C(=O)c4ccccc4Cl)CC3)nc21,30.2%,"1.3 µM [rising, full curve, poor fit]","0.164 µM [rising, full curve]"
CCc1ccc(OCC(=O)N/N=C/c2cc([N+](=O)[O-])ccc2N2CCCCCC2)cc1,-0.475%,–,–
CCOC(=O)CSc1n[nH]c(NC(=O)c2cccc(C)c2)n1,13.2%,–,–
Fc1cccc(-c2cc3nc4c(c(N5CCOCC5)n3n2)CCCC4)c1,0.0647%,–,"1.16 µM [rising, single point]"
OCCC1CN(Cc2ccc3nsnc3c2)CCN1C1CCCC1 (stereo not drawn),-12.2%,–,"2.06 µM [falling, single point]"
C/C(=N/NC(=O)c1ccc2c(c1)OCO2)c1ccc(NC(=O)c2ccc(F)cc2)cc1,-12.2%,–,–

# As a short view, some entries already given.
SMILES,cell number change,AC50 [1],AC50 [2]
O=C1CNC(=S)N1CCCn1ccnc1,20.7%,–,–
Cc1cc(Cl)ccc1OC(C)C(=O)NCCc1ccc2c(c1)OCCO2 (stereo not drawn),–,–,"0.184 µM [rising, full curve]"
COc1ccc(NC(=O)Nc2ccc3oc(C)nc3c2)cc1,21.1%,–,"0.731 µM [rising, full curve, poor fit]"

# (continued)

SMILES,cell number change,AC50 [1],AC50 [2]
COc1ccc(CSc2nnnn2-c2ccc(C(N)=O)cc2)cc1[N+](=O)[O-],–,–,"9.2 µM [rising, partial curve, poor fit]"
CC(C)(C)C1CCc2sc(C(=O)NNC(=O)CCl)cc2C1 (stereo not drawn),-7.62%,"0.103 µM [falling, full curve, poor fit]","0.082 µM [falling, full curve, poor fit]"
COC(=O)c1sccc1NC(=O)CCC1CCCC1,-21.1%,–,–
O=C1NC(c2ccccc2)(C(F)(F)F)SC2=NCCCN12 (stereo not drawn),-9.91%,"0.146 µM [falling, full curve, poor fit]",–
O=c1cc(CN2CCN(c3cccc(Cl)c3)CC2)c2cc(O)c(-c3ccccc3)cc2o1,3.1%,–,"1.16 µM [rising, partial curve]"
Cc1cc(NN)nc2ccc(Cl)cc12,-24.9%,–,–
COc1ccc(NC(=O)CCN2C(=O)C3C4CCC(C4)C3C2=O)cc1 (stereo not drawn),-12.9%,–,–
O=C(C(=O)N1CCCC1)c1c(-c2ccccc2)[nH]c2ccccc12,23.9%,–,"23.1 µM [rising, partial curve]"
COc1ccc(NC(=O)Nc2ccccc2C(N)=O)cc1,-54%,"7.31 µM [falling, single point]","6.51 µM [falling, single point]"
CC(=O)Nc1ccc(NC(=O)CSc2ccc(-c3ccc4c(c3)OCO4)nn2)cc1,–,"6.51 µM [falling, single point]",–
CCCNC(=S)N1CCN(c2nc(-c3ccc(C)cc3)cs2)CC1,3.2%,–,"29.1 µM [falling, single point]"
CCOC(=O)C1CCC(CNCc2ccc(Cl)cc2)CC1 (stereo not drawn),-35.6%,"32.6 µM [falling, single point]","29.1 µM [falling, single point]"
O=C(c1ccc(Cl)cc1)c1c[nH]c(C(=O)NNc2cccc(Cl)n2)c1,-99.4%,–,"29.1 µM [falling, single point]"
Cc1cc(OC(C)C)c2c(-c3ccccc3)cc(=O)oc2c1,20.7%,–,–
O=C(CSc1nc(C(F)(F)F)cc(=O)[nH]1)NCc1ccc2c(c1)OCO2,-25%,"0.13 µM [falling, full curve, poor fit]",–
O=C(Nc1nncs1)c1cc(-c2ccncc2)nc2ccc(Cl)cc12,4.86%,–,"6.51 µM [rising, single point]"
COc1cccc(-c2nc(CS(=O)(=O)CC(=O)Nc3cc(C)ccc3C)c(C)o2)c1,15.6%,–,"7.31 µM [rising, partial curve]"
COc1cccc(-c2cc(C(=O)Nc3ccncc3)c3ccccc3n2)c1,23.7%,–,"20.6 µM [falling, single point]"
O=C(O)c1cc2c(=O)c3ccccc3oc2nc1C(F)(F)F,30.2%,"11.6 µM [rising, partial curve]",–
COC(=O)c1cc(OC)c(OC)cc1NC(=O)CCc1ccc(C)o1,334%,"7.31 µM [rising, partial curve]","11.6 µM [rising, partial curve]"
